Laboratory results reported in the supplement of paper PMC8728848.
The other results are listed elsewhere or left out.

Tests used:
Assay in all cases: glycan array binding signal (z-score within array); higher = stronger binding
Details in all cases: glycan notation: IUPAC condensed, linker removed
[1] = target: Fuc(a1-2)Gal(b1-4)GlcNAc(b1-3)Gal(b1-4)GlcNAc(b1-2)Man(a1-3)[Fuc(a1-2)Gal(b1-4)GlcNAc(b1-3)Gal(b1-4)GlcNAc(b1-2)Man(a1-6)]Man(b1-4)GlcNAc(b1-4)GlcNAc
Method in brief: (§1)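 Negative Z-scores can be read as non-binding. The Z-score is calculated within each array and then averaged across arrays of one protein sequence at different concentrations or buffers and across linkers. Arrays, 3228 in all, were curated from the Consortium for Functional Glycomics database and kept only where the protein sequence was available.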

[2] = target: Fuc(a1-2)Gal(b1-4)GlcNAc(b1-3)Gal(b1-4)GlcNAc(b1-3)Gal(b1-4)GlcNAc
Method in brief: as §1

[3] = target: Fuc(a1-2)Gal(b1-4)GlcNAc(b1-3)GalNAc
Method in brief: as §1

[4] = target: Fuc(a1-2)Gal(b1-4)GlcNAc(b1-3)[Fuc(a1-2)Gal(b1-4)GlcNAc(b1-6)]GalNAc
Method in brief: as §1

[5] = target: Fuc(a1-2)Gal(b1-4)GlcNAc(b1-3)[Fuc(a1-3)[Gal(b1-4)]GlcNAc(b1-6)]Gal(b1-4)Glc
Method in brief: as §1

[6] = target: Fuc(a1-2)Gal(b1-4)GlcNAc(b1-6)GalNAc
Method in brief: as §1

[7] = target: Fuc(a1-2)Gal(b1-4)GlcNAc6S
Method in brief: as §1

[8] = target: Fuc(a1-2)Gal(b1-4)[Fuc(a1-3)]GlcNAc
Method in brief: as §1

[9] = target: Fuc(a1-2)Gal(b1-4)[Fuc(a1-3)]GlcNAc(b1-2)Man(a1-3)[Fuc(a1-2)Gal(b1-4)[Fuc(a1-3)]GlcNAc(b1-2)Man(a1-6)]Man(b1-4)GlcNAc(b1-4)[Fuc(a1-6)]GlcNAc
Method in brief: as §1

[10] = target: Fuc(a1-2)Gal(b1-4)[Fuc(a1-3)]GlcNAc(b1-2)[Fuc(a1-2)Gal(b1-4)[Fuc(a1-3)]GlcNAc(b1-4)]Man(a1-3)[Fuc(a1-2)Gal(b1-4)[Fuc(a1-3)]GlcNAc(b1-2)Man(a1-6)]Man(b1-4)GlcNAc(b1-4)GlcNAc
Method in brief: as §1

[11] = target: Fuc(a1-2)Gal(b1-4)[Fuc(a1-3)]GlcNAc(b1-3)Gal(b1-4)[Fuc(a1-3)]GlcNAc
Method in brief: as §1

[12] = target: Fuc(a1-2)Gal(b1-4)[Fuc(a1-3)]GlcNAc(b1-3)Gal(b1-4)[Fuc(a1-3)]GlcNAc(b1-3)Gal(b1-4)[Fuc(a1-3)]GlcNAc
Method in brief: as §1

[13] = target: Fuc(a1-2)Gal(b1-4)[Fuc(a1-3)]GlcNAc(b1-3)GalNAc
Method in brief: as §1

[14] = target: Fuc(a1-2)Gal(b1-4)[Fuc(a1-3)]GlcNAc(b1-3)[Neu5Ac(a2-6)Gal(b1-4)GlcNAc(b1-6)]Gal(b1-4)Glc
Method in brief: as §1

[15] = target: Fuc(a1-2)Gal3S(b1-4)GlcNAc
Method in brief: as §1

[16] = target: Fuc(a1-2)Gal6S(b1-3)GlcNAc
Method in brief: as §1

[17] = target: Fuc(a1-2)Gal6S(b1-3)GlcNAc6S
Method in brief: as §1

[18] = target: Fuc(a1-2)Gal6S(b1-4)Glc
Method in brief: as §1

[19] = target: Fuc(a1-2)Gal6S(b1-4)Glc6S
Method in brief: as §1

[20] = target: Fuc(a1-2)[Gal(a1-3)]Gal
Method in brief: as §1

[21] = target: Fuc(a1-2)[Gal(a1-3)]Gal(b1-3)GalNAc
Method in brief: as §1

[22] = target: Fuc(a1-2)[Gal(a1-3)]Gal(b1-3)GalNAc(b1-3)Gal(a1-4)Gal(b1-4)Glc
Method in brief: as §1

[23] = target: Fuc(a1-2)[Gal(a1-3)]Gal(b1-3)GlcNAc
Method in brief: as §1

[24] = target: Fuc(a1-2)[Gal(a1-3)]Gal(b1-3)GlcNAc(b1-2)Man(a1-3)[Fuc(a1-2)[Gal(a1-3)]Gal(b1-3)GlcNAc(b1-2)Man(a1-6)]Man(b1-4)GlcNAc(b1-4)GlcNAc
Method in brief: as §1

[25] = target: Fuc(a1-2)[Gal(a1-3)]Gal(b1-3)GlcNAc(b1-2)Man(a1-3)[Fuc(a1-2)[Gal(a1-3)]Gal(b1-3)GlcNAc(b1-2)Man(a1-6)]Man(b1-4)GlcNAc(b1-4)[Fuc(a1-6)]GlcNAc
Method in brief: as §1

[26] = target: Fuc(a1-2)[Gal(a1-3)]Gal(b1-3)GlcNAc(b1-3)GalNAc
Method in brief: as §1

[27] = target: Fuc(a1-2)[Gal(a1-3)]Gal(b1-3)GlcNAc(b1-6)GalNAc
Method in brief: as §1

[28] = target: Fuc(a1-2)[Gal(a1-3)]Gal(b1-4)Glc
Method in brief: as §1

[29] = target: Fuc(a1-2)[Gal(a1-3)]Gal(b1-4)GlcNAc
Method in brief: as §1

[30] = target: Fuc(a1-2)[Gal(a1-3)]Gal(b1-4)GlcNAc(b1-2)Man
Method in brief: as §1

B1: cFel (Cyprinus carpio), P68512 (protein)
chain: LDCTVIDGNLKQIDAGSGSVVGVNNLNETFVLIDNVFTKISGSLKHFSVGPAGQLGVNTANNIFKYQSGGFVQLAGLLKQVDAGGDQIIAGVNMYDDIYCLNMDANNKWPSSNTPWVQINGKLKYYSCGPYSCWGVNSNDQIFIMKDVSSNVCSGSGSFINIPGLLSMIEVATDGSVFGVNSQGNLYQRTGVTRSKPDGTDWISMVACPNGHKHVSFDLGVLWLVCVDGSIRKCILTD
glycan array binding signal (z-score) [1]: 0.04 | glycan array binding signal (z-score) [2]: 1.05 | glycan array binding signal (z-score) [3]: -0.209 | glycan array binding signal (z-score) [4]: 0.1 | glycan array binding signal (z-score) [5]: -0.83 | glycan array binding signal (z-score) [6]: 2.42 | glycan array binding signal (z-score) [7]: 0.68 | glycan array binding signal (z-score) [8]: 0.152 | glycan array binding signal (z-score) [9]: 3.47 | glycan array binding signal (z-score) [10]: -0.095 | glycan array binding signal (z-score) [11]: -0.711 | glycan array binding signal (z-score) [12]: -0.042 | glycan array binding signal (z-score) [13]: -1.34 | glycan array binding signal (z-score) [14]: 1.24 | glycan array binding signal (z-score) [15]: -0.749 | glycan array binding signal (z-score) [16]: 0.641 | glycan array binding signal (z-score) [17]: 0.952 | glycan array binding signal (z-score) [18]: -1.13 | glycan array binding signal (z-score) [19]: -0.731 | glycan array binding signal (z-score) [20]: 2.61 | glycan array binding signal (z-score) [21]: 0.606 | glycan array binding signal (z-score) [22]: -0.608 | glycan array binding signal (z-score) [23]: -0.322 | glycan array binding signal (z-score) [24]: -1.06 | glycan array binding signal (z-score) [25]: 0.642 | glycan array binding signal (z-score) [26]: 1.62 | glycan array binding signal (z-score) [27]: -0.813 | glycan array binding signal (z-score) [28]: 2.39 | glycan array binding signal (z-score) [29]: -1.2 | glycan array binding signal (z-score) [30]: -0.762
